Measured values taken from PMC6058718 (Drug Delivery, 2018).

Experiment: peptide synthesis
Details: conjugation step

**Q.** What does the source list for “PEPTIDE1{[DOX14OGlt].G.P.L.G.L.A.G.D.D.Y.C.D.G.F.Y.A.C.Y.M.D.V.[am]}$PEPTIDE1,PEPTIDE1,12:R3-18:R3$$$V2.0”?
**A.** conjugation yield: 43.5%; purity (crude or final not stated) (HPLC (XBridge Prep OBD C18, water with 0.1% FA / ACN gradient)): 95.1%

HELM strings list residues between dots; [ac] is acetyl, [am] amide, other brackets name non-standard units.
